From patent publication US10668094B2, “Selective inhibitors of Alpha2-containing isoforms of Na,K-ATPase and use thereof for reduction of intraocular pressure” (Yeda Research and Development Co. Ltd., priority 2015, dated 2020)

Tested on: Na,K-ATPase in bovine ciliary NPE cells
Format: biochemical

**Q.** For `CC1CN(C2CCC2)CCC(O[C@@H]2[C@H](C)O[C@@H](O[C@@H]3[C@H](C)O[C@@H](O[C@H]4CC[C@@]5(C)C(CCC6C5C[C@H](O)[C@]5(C)[C@@H](C7=CC(=O)OC7)CC[C@]65O)C4)C[C@@H]3O)C[C@@H]2O)O1` (stereo partly shown) [DcB], which “A α1” value (2 sites model, fraction of α1 site) is on record?
**A.** 0.34 ± 0.097

**Q.** And the “A α2” value (2 sites model, fraction of α2 site)?
**A.** 0.66 ± 0.090

**Q.** And the “best fit proportion α1” value (two site model)?
**A.** 34%

**Q.** And the “best fit proportion α2” value (two site model)?
**A.** 66%
